The experiment concerns the target RAD51 (endogenous, U2OS RAD52-GFP cells) (human (endogenous in U2OS)) (UniProt Q06609). Kind of experiment: proximity ligation; U2OS RAD52-GFP cells, 200 nM camptothecin 1 h then 5 h release, CSK pre-extraction, fixed with 2% PFA; primary antibodies anti-RAD51 and anti-GFP, Duolink; controls: single primary antibody, siRAD51, siRAD52.

Sequences of proteins named here, by UniProt entry; tags and fusion partners are left off.
UniProt Q06609: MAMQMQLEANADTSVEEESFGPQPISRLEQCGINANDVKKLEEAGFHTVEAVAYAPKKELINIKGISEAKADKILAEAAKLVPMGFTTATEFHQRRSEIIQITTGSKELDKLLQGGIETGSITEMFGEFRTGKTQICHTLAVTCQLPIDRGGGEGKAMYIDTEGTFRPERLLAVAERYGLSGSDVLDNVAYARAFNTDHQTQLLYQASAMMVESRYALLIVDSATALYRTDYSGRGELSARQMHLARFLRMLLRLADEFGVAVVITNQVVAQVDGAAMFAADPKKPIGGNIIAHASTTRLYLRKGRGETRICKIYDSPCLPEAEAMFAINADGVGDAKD

Data on one molecule can be found in article PMC10713436.

These are yes or no findings as the source states them, for the method shown. Binding seen in cells or lysates may run through a third protein. Some binding calls cover weakened binding; strength is not graded here. Where a sequence is shown, tags or fusion partners need not be part of it.

B1: RAD52-GFP (protein, UniProt P43351 1-418)
chain: MSGTEEAILGGRDSHPAAGGGSVLCFGQCQYTAEEYQAIQKALRQRLGPEYISSRMAGGGQKVCYIEGHRVINLANEMFGYNGWAHSITQQNVDFVDLNNGKFYVGVCAFVRVQLKDGSYHEDVGYGVSEGLKSKALSLEKARKEAVTDGLKRALRSFGNALGNCILDKDYLRSLNKLPRQLPLEVDLTKAKRQDLEPSVEEARYNSCRPNMALGHPQLQQVTSPSRPSHAVIPADQDCSSRSLSSSAVESEATHQRKLRQKQLQQQFRERMEKQQVRVSTPSAEKSEAAPPAPPVTHSTPVTVSEPLLEKDFLAGVTQELIKTLEDNSEKWAVTPDAGDGVVKPSSRADPAQTSDTLALNNQMVTQNRTPHSVCHQKPQAKSGSWDLQTYSADQRTTGNWESHRKSQDMKKRKYDPS
On to B1, for which the binding entry is recorded as “binds”.
